According to PubChem BioAssay (NCATS):
Inconclusive means that the source gave no clear call. Such entries were picked first, then a sample of the others. A potency beside an inconclusive call is a rough fit, not a confirmed value. Active and inactive are the calls of the source. The call rests on the fitted dose curve; in most records, active means well fitted cell-killing curve with a large enough effect; inconclusive means small, poorly fitted or top-dose-only effect, or effect the other way; inactive means no such curve, though single readings can be large or run the other way.

Assay: Quantitative High-Throughput drug screen in 47 multiple myeloma cell lines against the NCATS MIPE library collection: Karpas417_ECACC cell viability assay (AID 1918961)
Settings: Karpas417 myeloma viability, CellTiter-Glo ATP luminescence, 48 h; viability (% of DMSO): at 45.8 µM (top of the series)
Summary of the method: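 Myeloma cells (500 per well) were exposed to MIPE 4.0 compounds by pin transfer and incubated 48 hours at 37C, 5% CO2. Viability was read as ATP by CellTiter-Glo luminescence, normalised to DMSO (100%) and media-only (0%) wells.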
Potency means the concentration at half of the fitted maximal effect.

Row | Structure (SMILES) | viability (% of DMSO) | Potency
1 | NC(=O)c1cccnc1 | inactive: 114% | –
2 | CC(=O)NCCC(=O)N[C@@H](CCC(N)=O)C(=O)N[C@@H](CO)C(=O)N[C@@H](CCC(N)=O)C(=O)N[C@@H](CCC(N)=O)C(=O)N[C@H](C(=O)N[C@@H](Cc1ccccc1)C(=O)N[C@]1(C)CCCCCCC=CCCC[C@@](C)(C(=O)N[C@@H](CCC(N)=O)C(=O)N[C@@H](CC(N)=O)C(N)=O)NC(=O)[C@H](CC(C)C)NC(=O)[C@H](CC(C)C)NC(=O)[C@@H](CCCNC(=N)N)NC(=O)[C@H](Cc2c[nH]c3ccccc23)NC(=O)[C@H](CC(C)C)NC(=O)[C@H](CC(N)=O)NC1=O)[C@H](C)O | – | inconclusive: 33.2 µM [rising, partial curve, poor fit]
3 | Cc1cnc(NC(=O)C2=C(O)c3ccccc3S(=O)(=O)N2C)s1 | – | inconclusive: 0.0166 µM [cytotoxic, full curve, poor fit]
4 | COC(=O)N[C@H](C(=O)N[C@@H](Cc1ccccc1)[C@@H](O)CN(Cc1ccc(-c2ccccn2)cc1)NC(=O)[C@@H](NC(=O)OC)C(C)(C)C)C(C)(C)C | – | inconclusive: 10.5 µM [rising, full curve, poor fit]
5 | C1COC(NC(C2CC2)C2CC2)=N1 | – | inconclusive: 14.8 µM [cytotoxic, partial curve, poor fit]
6 | C=C1C(=CC=C2CCCC3(C)[C@@H]([C@H](C)C=CC=CC(O)(CC)CC)CC[C@@H]23)C[C@@H](O)C[C@@H]1O (stereo partly specified) | – | inconclusive: 20.9 µM [cytotoxic, partial curve, poor fit]

From no. 5 up to 6, copied from above:
Row | Structure (SMILES) | viability (% of DMSO) | Potency
5 | C1COC(NC(C2CC2)C2CC2)=N1 | – | inconclusive: 14.8 µM [cytotoxic, partial curve, poor fit]
6 | C=C1C(=CC=C2CCCC3(C)[C@@H]([C@H](C)C=CC=CC(O)(CC)CC)CC[C@@H]23)C[C@@H](O)C[C@@H]1O (stereo partly specified) | – | inconclusive: 20.9 µM [cytotoxic, partial curve, poor fit]
